For at least one entry, the source does not settle the construct or the ends of the probe. For part of these data: Negatives hold for the conditions tested. At least one verdict was read from the data and is not stated in words by the source.

The first data set relates to GST-MaAP2a-R2. The experiment in a line: competition with a labelled probe. Particulars: Chemiluminescent EMSA Kit (Beyotime) per manual; pH and temperature not stated; recombinant protein; protein details: N-terminal GST (pGEX-4T-1). A general note: Mobility shift assays separate free from complexed probe on a gel.
“ACATAGATATTTTTTTCCGCTCATGAGAGTTTTTTGGCGCGCACTACTGGACGTTAGGT / ACCTAACGTCCAGTAGTGCGCAAAAAAGCCCTCTCATGAGCGGAAAAAAATATCTATGT [MaLSF1 mprobe]”: the binding result is given as “no binding”. Still for that read-out and setting: as for “CGACATCACCTCTCTCTCTCTCGCTTTGTGTGCTTTTCATCATATTCGAATTCATTGGC (double strand) [MaAMY2C mprobe]”, the entry is “no binding”; as for “ACAAATAAATTATGGTGCCATGTTTATGTGTGTTTTTACAGGATAAATAATAAAGACGA (double strand) [MaAMY3C mprobe]”, “no binding”; as for “TTAGCACCGGCCGCGCTCCCTTTCCCGGTGTGTGCGGCGACGCGGGGGGAAGGGAGACC (double strand) [MapGlcT2-2 mprobe]”, “no binding”.

For the sequence “GATTTGCAATATCTGAGAAATGCTTTATTGTGTGGCTTTGGCTGTCCAGGGACATTGTG (double strand) [MaPWD1 mprobe]”, the binding result is listed as “no binding”. Same read-out and setting: with “AAGGAAAAAAGAATCTAGAAAACCACACACCCTAAGTCTCTTGAGAGTTTGGGGGTTCT (double strand) [MaBAM3 mprobe]” the entry was “no binding”; with “TCTTTCTATTATTTCTTTCTAAAACATGTGTGTCCTTCGATTTTCTTATTCGGTTCTCT (double strand) [MaMEX2 mprobe]”, “no binding”.

As for “ACCAAAAAGAAGTTCCTTGTTTTGTCTTTGTGTGGGCTAAATCTTTTGCATCTTTAGTT (double strand) [MaAMY2B mprobe]”, the binding result was “no binding”.

For “CACGATATAATCCACAAGGCCTAGCACACAGGCAACACTAAGAACACCGAACTGGAACA (double strand) [MapGlcT2-1 mprobe]”, the binding result was “no binding”. Same read-out and setting: with “CTATGCTAACTCAATTAGAAGCTCATTGAGTGTGTGCTGGGATTGAGTTGGGCTCGTTA (double strand) [MaSEX4 mprobe]” the entry was “no binding”. On to “CCTTGCGCTCCAATCGAACGGGACCTTTTTTTTGGTCATTGATTCCGGCACCACCTTT (double strand) [MaBAM2 mprobe]”, for which the binding result was “no binding”. Same read-out and setting: with “TACCCCCCGCCTCCGAAAAAAGCCGGCACCCGTCTGCCCAAAAAAGACGCTGCCCGAG / CTCGGGCAGCGTCTTTTTTGGGCAGACGGGTGCCTTTTTTGGCCGGAGGCGGGGGGTA [MaBAM1 mprobe]” the entry was “no binding”. Still for that read-out and setting: as for “TACGTATATGTGTTGTGTATAATGGATGTGTGTGTAGATTGGATCTCCTCCAAGCTTTG (double strand) [MaMEX1 mprobe]”, the entry is “no binding”; as for “ATGGTGTGTGAAAAAAATCATTCTCTCCCAAGCAACCACGTGTACACACAAATATCACG (double strand) [MaGWD1 mprobe]”, “no binding”; as for “TTTTTGTGGTGTATGGTGACTTGTTATTGTGTGTCTTTTCATGTAGATATCTGTTTATA (double strand) [MaAMY3A mprobe]”, “no binding”.

For another data set, the system named is GST-MaAP2a-R2. The experiment in a line: EMSA. Conditions: Chemiluminescent EMSA Kit (Beyotime) per manual; pH and temperature not stated; recombinant protein; protein details: N-terminal GST (pGEX-4T-1); label: biotin 3' end.
Take “CGACATCACCTCTCTCTCTCTCGCTTTTTGTTCTTTTCATCATATTCGAATTCATTGGC (double strand) [MaAMY2C probe]”: the binding result is listed as “binds”.

Consider “CCTTGCGCTCCAATCGAACGGGACCGGCGGCTTGGTCATTGATTCCGGCACCACCTTT (double strand) [MaBAM2 probe]”, for which the binding result is given as “binds”.

With “TACGTATATGTGTTGTGTATAATGGATTTGTTTGTAGATTGGATCTCCTCCAAGCTTTG (double strand) [MaMEX1 probe]”, the binding result is “binds”. On the same count and under the same terms, as for “CTATGCTAACTCAATTAGAAGCTCATTGAGTTTGTTCTGGGATTGAGTTGGGCTCGTTA (double strand) [MaSEX4 probe]”, the entry is “binds”; as for “TTTTTGTGGTGTATGGTGACTTGTTATTTTGTTTCTTTTCATGTAGATATCTGTTTATA (double strand) [MaAMY3A probe]”, “binds”; as for “ACAAATAAATTATGGTGCCATGTTTATTTGTTTTTTTACAGGATAAATAATAAAGACGA (double strand) [MaAMY3C probe]”, “binds”.

Turning to “ATGGTGTGTGGCCGCCATCATTCTCTCCCAAGCAACCACGTGTAAACAAAAATATCACG (double strand) [MaGWD1 probe]”, the binding result is listed as “binds”. Same read-out and setting: as for “GATTTGCAATATCTGAGAAATGCTTTATTTTGTTGCTTTGGCTGTCCAGGGACATTGTG (double strand) [MaPWD1 probe]”, the entry is “binds”.

In the case of “TCTTTCTATTATTTCTTTCTAAAACATTTGTTTCCTTCGATTTTCTTATTCGGTTCTCT (double strand) [MaMEX2 probe]”, the binding result was “binds”. Regarding “TTAGCACCGGCCGCGCTCCCTTTCCCGGTTTGTTCGGCGACGCGGGGGGAAGGGAGACC (double strand) [MapGlcT2-2 probe]”, the binding result is “binds”.

Consider “CACGATATAATCCACAAGGCCTAGAACAAAGGCAACACTAAGAACACCGAACTGGAACA (double strand) [MapGlcT2-1 probe]”, for which the binding result is “binds”. In the case of “ACCAAAAAGAAGTTCCTTGTTTTGTCTTTTTGTTGGCTAAATCTTTTGCATCTTTAGTT (double strand) [MaAMY2B probe]”, the binding result is on record as “binds”. Still for that read-out and setting: with “ACATAGATATTTTTTTCCGCTCATGAGAGGGCGGCGGCGCGCACTACTGGACGTTAGGT (double strand) [MaLSF1 probe]” the entry was “binds”; with “TACCCCCCGCCTCCGGCCGCCGCCGGCACCCGTCTGCCCGCCGCCGACGCTGCCCGAG (double strand) [MaBAM1 probe]”, “binds”. On the same count and under the same terms, with “AAGGAAAAAAGAATCTAGAAAACAACAAACCCTAAGTCTCTTGAGAGTTTGGGGGTTCT (double strand) [MaBAM3 probe]” the entry was “binds”.

These data come from PMC9691770.
